Test results: the supplement of paper PMC10849652
The list shows a part of the results.

By UniProt entry, the sequences of proteins in these tests, tags left out. Where a name states a change or a piece, a line headed by the entry shows the natural chain unless it says otherwise.
UniProt Q6RFH5: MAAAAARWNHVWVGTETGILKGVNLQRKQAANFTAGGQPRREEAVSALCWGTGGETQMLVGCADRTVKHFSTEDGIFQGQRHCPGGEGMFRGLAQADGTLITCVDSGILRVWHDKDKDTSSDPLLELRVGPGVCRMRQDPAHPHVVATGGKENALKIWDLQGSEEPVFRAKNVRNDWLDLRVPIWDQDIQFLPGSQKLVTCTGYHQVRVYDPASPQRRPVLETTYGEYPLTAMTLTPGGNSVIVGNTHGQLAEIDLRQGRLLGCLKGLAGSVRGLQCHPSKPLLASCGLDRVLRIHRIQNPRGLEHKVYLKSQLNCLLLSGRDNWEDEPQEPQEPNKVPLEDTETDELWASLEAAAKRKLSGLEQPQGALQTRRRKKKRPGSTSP
UniProt Q9BZH6: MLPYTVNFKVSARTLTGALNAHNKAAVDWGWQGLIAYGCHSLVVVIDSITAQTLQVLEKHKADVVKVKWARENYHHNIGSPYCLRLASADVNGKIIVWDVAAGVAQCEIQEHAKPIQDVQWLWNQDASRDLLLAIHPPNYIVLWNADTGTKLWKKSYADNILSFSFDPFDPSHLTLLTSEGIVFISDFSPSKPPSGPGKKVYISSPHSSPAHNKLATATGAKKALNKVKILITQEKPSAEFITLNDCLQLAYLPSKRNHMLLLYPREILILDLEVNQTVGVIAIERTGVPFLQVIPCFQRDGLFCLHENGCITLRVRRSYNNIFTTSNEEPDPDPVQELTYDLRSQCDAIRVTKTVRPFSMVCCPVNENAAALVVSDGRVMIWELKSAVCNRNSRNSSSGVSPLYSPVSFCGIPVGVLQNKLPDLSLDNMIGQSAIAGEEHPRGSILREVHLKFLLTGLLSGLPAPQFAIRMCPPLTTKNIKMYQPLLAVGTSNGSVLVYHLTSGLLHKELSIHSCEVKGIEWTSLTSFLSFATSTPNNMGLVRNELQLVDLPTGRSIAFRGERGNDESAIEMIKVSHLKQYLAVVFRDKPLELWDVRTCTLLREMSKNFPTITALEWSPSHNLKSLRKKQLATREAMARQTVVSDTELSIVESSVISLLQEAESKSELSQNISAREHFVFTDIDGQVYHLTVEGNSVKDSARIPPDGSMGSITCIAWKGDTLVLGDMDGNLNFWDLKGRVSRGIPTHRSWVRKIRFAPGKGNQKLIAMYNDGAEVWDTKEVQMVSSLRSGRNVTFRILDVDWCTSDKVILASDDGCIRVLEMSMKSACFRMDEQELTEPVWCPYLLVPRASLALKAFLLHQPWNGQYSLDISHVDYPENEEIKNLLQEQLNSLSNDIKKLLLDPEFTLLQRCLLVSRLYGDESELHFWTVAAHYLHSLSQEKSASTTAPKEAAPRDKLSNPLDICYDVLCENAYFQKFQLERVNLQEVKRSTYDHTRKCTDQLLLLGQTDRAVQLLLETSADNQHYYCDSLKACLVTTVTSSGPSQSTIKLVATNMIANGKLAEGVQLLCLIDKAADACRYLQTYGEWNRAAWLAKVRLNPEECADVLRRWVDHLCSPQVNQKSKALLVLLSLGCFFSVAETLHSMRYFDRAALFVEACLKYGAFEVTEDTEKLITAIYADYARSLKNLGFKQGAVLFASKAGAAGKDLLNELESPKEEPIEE
UniProt Q9UGM6: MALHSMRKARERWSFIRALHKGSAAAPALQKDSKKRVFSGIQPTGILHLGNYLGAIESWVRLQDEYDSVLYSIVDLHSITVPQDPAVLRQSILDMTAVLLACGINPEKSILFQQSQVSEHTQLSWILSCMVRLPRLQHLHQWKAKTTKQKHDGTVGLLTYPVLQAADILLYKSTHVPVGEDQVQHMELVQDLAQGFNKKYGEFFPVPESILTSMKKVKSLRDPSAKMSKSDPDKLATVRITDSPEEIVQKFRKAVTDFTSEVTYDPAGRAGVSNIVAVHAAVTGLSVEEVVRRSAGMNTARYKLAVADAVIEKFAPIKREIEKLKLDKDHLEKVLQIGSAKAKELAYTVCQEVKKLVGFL
UniProt Q9BRG1: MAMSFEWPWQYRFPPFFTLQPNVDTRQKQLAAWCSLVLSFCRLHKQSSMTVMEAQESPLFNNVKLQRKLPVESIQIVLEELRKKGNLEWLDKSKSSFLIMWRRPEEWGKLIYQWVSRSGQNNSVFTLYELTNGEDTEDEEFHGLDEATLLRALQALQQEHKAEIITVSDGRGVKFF
UniProt O43516: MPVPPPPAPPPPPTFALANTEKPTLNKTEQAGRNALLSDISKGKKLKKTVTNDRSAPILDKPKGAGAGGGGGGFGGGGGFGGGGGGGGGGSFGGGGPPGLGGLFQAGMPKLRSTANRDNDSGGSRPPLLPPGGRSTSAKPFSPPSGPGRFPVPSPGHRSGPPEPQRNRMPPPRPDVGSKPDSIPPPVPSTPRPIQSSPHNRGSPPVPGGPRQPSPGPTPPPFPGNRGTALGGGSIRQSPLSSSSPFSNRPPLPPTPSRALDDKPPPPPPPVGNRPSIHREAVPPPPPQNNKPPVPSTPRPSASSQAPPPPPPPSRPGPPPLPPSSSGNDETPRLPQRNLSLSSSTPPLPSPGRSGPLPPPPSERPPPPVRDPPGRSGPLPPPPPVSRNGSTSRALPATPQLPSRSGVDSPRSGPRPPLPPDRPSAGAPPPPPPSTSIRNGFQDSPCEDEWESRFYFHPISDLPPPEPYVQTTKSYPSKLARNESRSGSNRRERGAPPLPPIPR
UniProt O75083: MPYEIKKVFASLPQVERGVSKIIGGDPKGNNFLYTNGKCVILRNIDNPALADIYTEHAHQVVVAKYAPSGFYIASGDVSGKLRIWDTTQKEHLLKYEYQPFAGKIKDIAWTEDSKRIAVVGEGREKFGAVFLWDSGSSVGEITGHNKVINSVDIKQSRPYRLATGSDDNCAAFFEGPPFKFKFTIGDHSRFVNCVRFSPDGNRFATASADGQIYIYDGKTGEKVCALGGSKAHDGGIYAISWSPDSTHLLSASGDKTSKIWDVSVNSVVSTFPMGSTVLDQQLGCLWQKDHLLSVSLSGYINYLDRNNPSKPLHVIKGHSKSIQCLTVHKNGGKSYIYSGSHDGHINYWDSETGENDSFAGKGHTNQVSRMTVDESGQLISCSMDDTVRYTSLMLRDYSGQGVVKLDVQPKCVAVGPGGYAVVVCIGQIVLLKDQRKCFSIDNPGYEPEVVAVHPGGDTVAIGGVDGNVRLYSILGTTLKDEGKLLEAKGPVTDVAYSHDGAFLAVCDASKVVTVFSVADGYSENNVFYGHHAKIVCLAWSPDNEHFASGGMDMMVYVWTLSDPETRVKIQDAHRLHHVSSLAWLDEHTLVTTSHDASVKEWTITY
UniProt P98170, whole entry, looked up: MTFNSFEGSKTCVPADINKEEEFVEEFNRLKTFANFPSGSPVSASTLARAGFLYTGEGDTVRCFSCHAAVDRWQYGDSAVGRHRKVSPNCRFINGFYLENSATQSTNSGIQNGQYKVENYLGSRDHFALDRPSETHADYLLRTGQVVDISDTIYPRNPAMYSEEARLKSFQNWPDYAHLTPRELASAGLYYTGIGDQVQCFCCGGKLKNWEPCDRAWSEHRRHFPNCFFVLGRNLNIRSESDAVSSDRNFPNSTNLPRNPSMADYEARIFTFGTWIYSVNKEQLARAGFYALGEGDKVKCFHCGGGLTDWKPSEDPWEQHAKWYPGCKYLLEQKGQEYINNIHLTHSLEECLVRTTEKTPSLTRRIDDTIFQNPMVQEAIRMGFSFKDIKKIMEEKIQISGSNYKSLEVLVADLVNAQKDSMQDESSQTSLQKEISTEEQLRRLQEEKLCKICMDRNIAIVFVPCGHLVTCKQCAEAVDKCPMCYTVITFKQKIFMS
UniProt Q9NNW5: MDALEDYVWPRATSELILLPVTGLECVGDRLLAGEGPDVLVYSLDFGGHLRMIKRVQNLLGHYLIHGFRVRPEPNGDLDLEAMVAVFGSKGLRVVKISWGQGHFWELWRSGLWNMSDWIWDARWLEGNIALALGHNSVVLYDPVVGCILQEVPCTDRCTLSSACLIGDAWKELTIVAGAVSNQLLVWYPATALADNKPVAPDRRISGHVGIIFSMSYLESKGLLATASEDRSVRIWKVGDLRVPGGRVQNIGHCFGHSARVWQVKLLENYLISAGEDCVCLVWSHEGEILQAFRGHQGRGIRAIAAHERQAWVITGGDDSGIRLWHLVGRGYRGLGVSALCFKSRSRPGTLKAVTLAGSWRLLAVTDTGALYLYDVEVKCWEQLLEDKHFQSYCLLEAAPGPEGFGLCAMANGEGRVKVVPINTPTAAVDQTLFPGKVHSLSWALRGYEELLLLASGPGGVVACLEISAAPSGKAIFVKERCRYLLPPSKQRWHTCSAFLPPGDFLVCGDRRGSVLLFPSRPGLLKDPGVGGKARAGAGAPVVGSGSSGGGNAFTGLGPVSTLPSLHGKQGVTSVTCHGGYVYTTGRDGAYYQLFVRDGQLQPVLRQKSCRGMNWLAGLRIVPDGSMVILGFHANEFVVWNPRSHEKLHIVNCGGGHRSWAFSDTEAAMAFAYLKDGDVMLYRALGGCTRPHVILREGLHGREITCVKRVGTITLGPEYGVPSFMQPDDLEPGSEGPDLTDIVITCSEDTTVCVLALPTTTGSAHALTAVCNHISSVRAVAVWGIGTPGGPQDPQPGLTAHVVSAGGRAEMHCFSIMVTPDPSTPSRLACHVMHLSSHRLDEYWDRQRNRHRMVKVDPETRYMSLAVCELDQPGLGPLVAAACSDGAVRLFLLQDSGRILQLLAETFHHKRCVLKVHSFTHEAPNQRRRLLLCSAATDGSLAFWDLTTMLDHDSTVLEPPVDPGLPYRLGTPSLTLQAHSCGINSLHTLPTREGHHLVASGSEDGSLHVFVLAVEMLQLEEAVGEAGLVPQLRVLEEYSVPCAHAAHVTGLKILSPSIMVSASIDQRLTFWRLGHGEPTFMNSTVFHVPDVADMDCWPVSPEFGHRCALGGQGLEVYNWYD
UniProt Q96S15: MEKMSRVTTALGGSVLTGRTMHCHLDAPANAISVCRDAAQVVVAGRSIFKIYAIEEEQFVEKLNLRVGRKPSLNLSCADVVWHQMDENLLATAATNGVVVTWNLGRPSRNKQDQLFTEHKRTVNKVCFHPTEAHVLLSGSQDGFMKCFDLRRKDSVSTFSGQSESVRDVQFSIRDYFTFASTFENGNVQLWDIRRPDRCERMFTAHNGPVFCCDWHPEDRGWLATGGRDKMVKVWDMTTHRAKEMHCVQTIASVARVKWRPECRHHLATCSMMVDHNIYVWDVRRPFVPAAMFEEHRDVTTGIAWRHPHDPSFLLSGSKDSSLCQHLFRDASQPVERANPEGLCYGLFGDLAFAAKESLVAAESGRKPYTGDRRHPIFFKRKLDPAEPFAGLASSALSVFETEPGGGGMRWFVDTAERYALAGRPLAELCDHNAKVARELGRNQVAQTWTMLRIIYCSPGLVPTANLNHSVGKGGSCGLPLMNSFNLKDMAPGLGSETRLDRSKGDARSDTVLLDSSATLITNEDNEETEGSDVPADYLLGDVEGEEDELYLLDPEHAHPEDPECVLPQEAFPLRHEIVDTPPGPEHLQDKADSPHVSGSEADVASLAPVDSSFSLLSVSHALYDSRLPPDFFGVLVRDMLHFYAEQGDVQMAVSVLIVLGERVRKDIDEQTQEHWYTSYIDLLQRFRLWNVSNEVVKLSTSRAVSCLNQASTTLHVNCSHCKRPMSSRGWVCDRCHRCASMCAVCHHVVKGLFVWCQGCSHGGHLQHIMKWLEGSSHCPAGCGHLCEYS
UniProt Q92558: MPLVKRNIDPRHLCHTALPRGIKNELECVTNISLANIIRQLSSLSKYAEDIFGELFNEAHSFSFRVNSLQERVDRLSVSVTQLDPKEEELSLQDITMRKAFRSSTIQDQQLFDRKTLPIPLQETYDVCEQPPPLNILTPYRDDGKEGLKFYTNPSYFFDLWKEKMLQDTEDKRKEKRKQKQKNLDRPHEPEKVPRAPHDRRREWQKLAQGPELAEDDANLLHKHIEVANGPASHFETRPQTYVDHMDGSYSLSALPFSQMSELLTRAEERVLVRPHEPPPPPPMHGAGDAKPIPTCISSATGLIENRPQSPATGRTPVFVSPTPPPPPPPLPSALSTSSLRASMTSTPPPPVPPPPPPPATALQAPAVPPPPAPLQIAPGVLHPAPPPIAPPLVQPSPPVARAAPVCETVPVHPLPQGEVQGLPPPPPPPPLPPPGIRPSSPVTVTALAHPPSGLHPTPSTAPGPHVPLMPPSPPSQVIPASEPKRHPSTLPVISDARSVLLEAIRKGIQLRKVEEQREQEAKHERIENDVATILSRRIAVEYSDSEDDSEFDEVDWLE
UniProt O00258: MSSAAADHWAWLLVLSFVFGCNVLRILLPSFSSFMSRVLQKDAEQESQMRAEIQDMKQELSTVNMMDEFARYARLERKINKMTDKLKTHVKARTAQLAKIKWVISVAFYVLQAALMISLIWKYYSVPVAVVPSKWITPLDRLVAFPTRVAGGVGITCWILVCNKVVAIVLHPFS

Experiments:
Test in all cases: log2 fold change, soluble protein after heating vs DMSO (PISA); higher = thermal stabilisation; K562 lysate, 10 uM; active = over 0.2 and 3.5 SD of the protein, either way, in both replicates (recomputed)
ibrutinib = compound: C=CC(=O)N1CCC[C@@H](n2nc(-c3ccc(Oc4ccccc4)cc3)c3c(N)ncnc32)C1 [ibrutinib]
Procedure, shortened: (§1)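 Dounce homogenisation of K562 pellets in PBS pH 7.4 with 1 mM MgCl2 produced a crude extract, used at 1 mg/mL protein. Exposure to 10 μM compound lasted 30 min, and aliquots were then heated for 3 min across 48°C-58°C, pooled and brought to 0.5% NP-40 at 4°C. The supernatant after 21,000xg for 90 min was quantified by TMTpro 16plex LC-MS/MS with channel sums equalised. Duplicate values are given as log-two fold change in thermal stability relative to solvent controls.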

[1] = compound: CC(=O)c1cnc2ccc(-c3cc(Cl)c(O)c(Cl)c3)nc2c1N[C@H]1CC[C@H](CN(C)C)CC1
Procedure, shortened: as §1

ralimetinib = compound: CC(C)(C)Cn1c(N)nc2ccc(-c3[nH]c(C(C)(C)C)nc3-c3ccc(F)cc3)nc21 [ralimetinib]
Procedure, shortened: as §1

[2] = compound: CC(C)(O)CC(=O)NCCn1ccc2ncnc(Nc3ccc(Oc4cccc(C(F)(F)F)c4)c(Cl)c3)c21
Procedure, shortened: as §1

[3] = compound: CC(C)C1=C2N=C(C=C(N2N=C1)NCC3=CC=CC=C3)NCCCCCCN
Procedure, shortened: as §1

[4] = compound: CC1=C(C(CC(=O)N1)C2=CC=C(C=C2)C(F)(F)F)C(=O)NC3=C(C=C4C(=C3)C=NN4)F
Procedure, shortened: as §1

[5] = compound: CC1=C(C2=C(C=C1)C(=O)C3=CC=CC=C3N2CCCN)C
Procedure, shortened: as §1

[6] = compound: CC1=C(C=C(C=C1)NC(=O)C2=CC(=CC=C2)C(C)(C)C#N)NC3=CC4=C(C=C3)N=CN(C4=O)C
Procedure, shortened: as §1

[7] = compound: CC1=C(C=C(C=C1)NC(=O)C2=CC(=CC=C2)N(C)C)NC(=O)C3=CC=C(C=C3)O
Procedure, shortened: as §1

[8] = compound: CC1=CC=C(C=C1)SC2=C3C=C(SC3=CN=C2)C(=O)N
Procedure, shortened: as §1

vemurafenib = compound: CCCS(=O)(=O)Nc1ccc(F)c(C(=O)c2c[nH]c3ncc(-c4ccc(Cl)cc4)cc23)c1F [vemurafenib]
Procedure, shortened: as §1

[9] = compound: CCCS(=O)(=O)Nc1ccc(F)c(C(=O)c2c[nH]c3ncc(Cl)cc23)c1F
Procedure, shortened: as §1

barasertib = compound: CCN(CCCOc1ccc2c(Nc3cc(CC(=O)Nc4cccc(F)c4)[nH]n3)ncnc2c1)CCOP(=O)(O)O [barasertib]
Procedure, shortened: as §1

[10] = compound: CC[C@@H]1C(=O)N(C)c2cnc(Nc3ccc(C(=O)NC4CCN(C)CC4)cc3OC)nc2N1C1CCCC1
Procedure, shortened: as §1

volasertib = compound: CC[C@@H]1C(=O)N(C)c2cnc(Nc3ccc(C(=O)N[C@H]4CC[C@H](N5CCN(CC6CC6)CC5)CC4)cc3OC)nc2N1C(C)C [volasertib]
Procedure, shortened: as §1

[11] = compound: CCn1c(C(=O)N(C2CC2)C2CC2)cc2c3c(ncn3C)c(Nc3cc(C)n(C)n3)nc21
Procedure, shortened: as §1

[12] = compound: CCn1cc(-c2ccnc3[nH]c(-c4cccc(CN(C)C)c4)cc23)c(-c2ccc(NC(=O)N(C)C)cc2)n1
Procedure, shortened: as §1

[13] = compound: CN1CCC(CNc2ccc3ncc(-c4cccc(OC(F)(F)F)c4)n3n2)CC1
Procedure, shortened: as §1

saracatinib = compound: CN1CCN(CCOc2cc(OC3CCOCC3)c3c(Nc4c(Cl)ccc5c4OCO5)ncnc3c2)CC1 [saracatinib]
Procedure, shortened: as §1

sotrastaurin = compound: CN1CCN(c2nc(C3=C(c4c[nH]c5ccccc45)C(=O)NC3=O)c3ccccc3n2)CC1 [sotrastaurin]
Procedure, shortened: as §1

Measured: log2 fold change

WDR74 (UniProt Q6RFH5)
inactive: ibrutinib -0.009 | [1] 0.03 | ralimetinib 0.018 | [2] 0.066 | [3] 0.06 | [4] -0.003 | [5] -0.036 | [6] -0.001 | [7] -0.005 | [8] 0.052 | vemurafenib 0.02 | [9] 0.026 | barasertib 0.034 | [10] 0.082 | volasertib -0.004 | [11] -0.113 | [12] -0.037 | [13] 0.006 | saracatinib 0.077 | sotrastaurin -0.016

WDR11 (UniProt Q9BZH6)
inactive: ibrutinib -0.011 | [1] 0.008 | ralimetinib 0.02 | [2] -0.048 | [3] 0.035 | [4] -0.069 | [5] 0.007 | [6] 0.023 | [7] 0.03 | [8] -0.021 | vemurafenib 0.074 | [9] -0.003 | barasertib 0.008 | [10] -0.054 | volasertib 0 | [11] -0.026 | [12] -0.286 | [13] 0.104 | saracatinib 0.005 | sotrastaurin 0

WARS2 (UniProt Q9UGM6)
inactive: ibrutinib 0.086 | [1] 0.026 | ralimetinib 0.021 | [2] 0.007 | [3] -0.01 | [4] 0.006 | [5] -0.03 | [6] 0.015 | [7] 0.002 | [8] 0.04 | vemurafenib 0.001 | [9] 0.038 | barasertib -0.039 | [10] -0.013 | volasertib -0.044 | [11] 0.003 | [12] 0.042 | [13] -0.058 | saracatinib -0.016 | sotrastaurin 0.023

WDTC1 (UniProt Q8N5D0)
inactive: ibrutinib 0.03 | [1] -0.013 | ralimetinib 0.025 | [2] -0.007 | [3] 0.043 | [4] 0.077 | [5] 0.018 | [6] -0.024 | [7] 0.052 | [8] -0.012 | vemurafenib -0.017 | [9] 0.017 | barasertib 0.067 | [10] -0.04 | volasertib -0.035 | [11] -0.032 | [12] 0.008 | [13] -0.061 | saracatinib 0.022 | sotrastaurin -0.023

WDR82 (UniProt Q6UXN9)
inactive: ibrutinib 0.003 | [1] -0.024 | ralimetinib 0.011 | [2] -0.022 | [3] -0.002 | [4] -0.006 | [5] 0.003 | [6] 0.001 | [7] 0.005 | [8] -0.007 | vemurafenib -0.007 | [9] 0.018 | barasertib -0.006 | [10] -0.027 | volasertib 0.002 | [11] -0.036 | [12] 0.004 | [13] 0.004 | saracatinib 0.012 | sotrastaurin -0.025

VWDE (UniProt Q8N2E2)
inactive: ibrutinib 0.001 | [1] -0.059 | ralimetinib 0.044 | [2] -0.036 | [3] -0.046 | [4] -0.003 | [5] 0.017 | [6] 0.032 | [7] 0.027 | [8] -0.074 | vemurafenib -0.033 | [9] 0.043 | barasertib -0.048 | [10] 0.041 | volasertib 0.08 | [11] -0.019 | [12] 0 | [13] 0.004 | saracatinib -0.006 | sotrastaurin 0.012

VPS25 (UniProt Q9BRG1)
inactive: ibrutinib -0.016 | [1] -0.006 | ralimetinib 0.008 | [2] -0.028 | [3] 0.022 | [4] -0.022 | [5] -0.024 | [6] -0.014 | [7] -0.003 | [8] 0.004 | vemurafenib -0.006 | [9] 0.015 | barasertib 0.094 | [10] 0.005 | volasertib 0.002 | [11] 0.005 | [12] 0.164 | [13] -0.048 | saracatinib 0.012 | sotrastaurin -0.027

WIPF1 isoform 3 (UniProt O43516)
inactive: ibrutinib 0.05 | [1] 0.08 | ralimetinib -0.034 | [2] -0.156 | [3] 0.006 | [4] 0.015 | [5] 0.009 | [6] -0.013 | [7] 0.034 | [8] -0.014 | vemurafenib 0.017 | [9] 0.046 | barasertib 0.153 | [10] 0.027 | volasertib 0.058 | [11] -0.051 | [12] -0.218 | [13] -0.002 | saracatinib 0.076 | sotrastaurin 0.028

VKORC1L1, A0A3B3ISV4
inactive: ibrutinib -0.061 | [1] 0.038 | ralimetinib -0.001 | [2] -0.011 | [3] -0.019 | [4] -0.029 | [5] -0.005 | [6] 0.02 | [7] -0.032 | [8] 0.052 | vemurafenib -0.023 | [9] -0.046 | barasertib 0.136 | [10] -0.162 | volasertib 0.028 | [11] 0.033 | [12] -0.116 | [13] 0.022 | saracatinib -0.016 | sotrastaurin -0.052

WDR1 (UniProt O75083)
inactive: ibrutinib 0.002 | [1] 0.007 | ralimetinib -0.013 | [2] 0.015 | [3] 0.009 | [4] -0.024 | [5] 0.022 | [6] -0.003 | [7] -0.012 | [8] 0.033 | vemurafenib -0.02 | [9] -0.008 | barasertib 0.007 | [10] -0.052 | volasertib -0.013 | [11] 0.006 | [12] 0.147 | [13] -0.071 | saracatinib -0.013 | sotrastaurin -0.023

2 records picked at random from those above, as already listed:
WDR82 (UniProt Q6UXN9)
inactive: ibrutinib 0.003 | [1] -0.024 | ralimetinib 0.011 | [2] -0.022 | [3] -0.002 | [4] -0.006 | [5] 0.003 | [6] 0.001 | [7] 0.005 | [8] -0.007 | vemurafenib -0.007 | [9] 0.018 | barasertib -0.006 | [10] -0.027 | volasertib 0.002 | [11] -0.036 | [12] 0.004 | [13] 0.004 | saracatinib 0.012 | sotrastaurin -0.025

WDR1 (UniProt O75083)
inactive: ibrutinib 0.002 | [1] 0.007 | ralimetinib -0.013 | [2] 0.015 | [3] 0.009 | [4] -0.024 | [5] 0.022 | [6] -0.003 | [7] -0.012 | [8] 0.033 | vemurafenib -0.02 | [9] -0.008 | barasertib 0.007 | [10] -0.052 | volasertib -0.013 | [11] 0.006 | [12] 0.147 | [13] -0.071 | saracatinib -0.013 | sotrastaurin -0.023

The results go on.

XIAP (UniProt P98170)
inactive: ibrutinib 0.025 | [1] -0.031 | ralimetinib -0.002 | [2] -0.04 | [3] -0.058 | [4] 0.034 | [5] -0.017 | [6] 0.034 | [7] 0.021 | [8] -0.034 | vemurafenib -0.02 | [9] -0.004 | barasertib 0.008 | [10] 0.012 | volasertib -0.043 | [11] -0.05 | [12] -0.079 | [13] 0.059 | saracatinib -0.006 | sotrastaurin -0.006

WDR6 (UniProt Q9NNW5)
inactive: ibrutinib 0.008 | [1] 0.008 | ralimetinib 0.018 | [2] -0.017 | [3] -0.032 | [4] -0.012 | [5] -0.019 | [6] 0.011 | [7] 0.022 | [8] 0.017 | vemurafenib 0.008 | [9] -0.007 | barasertib 0.013 | [10] -0.006 | volasertib -0.029 | [11] -0.009 | [12] -0.053 | [13] 0.033 | saracatinib 0.01 | sotrastaurin 0.116

WDR24 (UniProt Q96S15)
inactive: ibrutinib -0.044 | [1] -0.016 | ralimetinib 0.025 | [2] -0.022 | [3] 0.041 | [4] 0.055 | [5] -0.011 | [6] 0.033 | [7] -0.034 | [8] 0.021 | vemurafenib 0.083 | [9] -0.036 | barasertib 0.129 | [10] -0.055 | volasertib -0.035 | [11] 0.047 | [12] -0.026 | [13] 0.043 | saracatinib 0.078 | sotrastaurin 0.082

WASF1 (UniProt Q92558)
inactive: ibrutinib -0.018 | [1] -0.01 | ralimetinib -0.044 | [2] 0.02 | [3] -0.015 | [4] 0.063 | [5] -0.065 | [6] 0.065 | [7] -0.027 | [8] -0.045 | vemurafenib -0.012 | [9] 0.035 | barasertib 0.013 | [10] -0.039 | volasertib 0.009 | [11] -0.067 | [12] -0.052 | [13] 0.052 | saracatinib -0.041 | sotrastaurin 0.023

VPS35 (UniProt Q96QK1)
inactive: ibrutinib -0.005 | [1] -0.008 | ralimetinib -0.009 | [2] -0.018 | [3] -0.022 | [4] -0.019 | [5] 0.006 | [6] 0.02 | [7] 0.011 | [8] 0.009 | vemurafenib -0.005 | [9] -0.003 | barasertib 0.002 | [10] -0.022 | volasertib -0.005 | [11] -0.001 | [12] 0.015 | [13] -0.008 | saracatinib 0.001 | sotrastaurin -0.001

WRB (UniProt O00258)
inactive: ibrutinib 0.045 | [1] -0.043 | ralimetinib -0.095 | [2] -0.255 | [3] -0.024 | [4] -0.025 | [5] -0.141 | [6] 0.063 | [7] -0.004 | [8] -0.024 | vemurafenib 0.086 | [9] 0.077 | barasertib 0.098 | [10] -0.011 | volasertib 0.015 | [11] -0.148 | [12] -0.176 | [13] 0.068 | saracatinib -0.147 | sotrastaurin 0.013
